# Measurements: PubChem BioAssay AID540256 (National Center for Advancing Translational Sciences (NCATS), 2011)
# Hit rate of the full screen: of about 300,000 compounds, about 3,700 (1.2%) were called active. Inconclusive means that the source gave no clear call. Such entries were picked first, then a sample of the others. Calls come from the whole dose curve; tested in HEK293 cells. A potency beside an inconclusive call is a rough fit, not a confirmed value.
# Assay: qHTS for Inhibitors of binding or entry into cells for Lassa Virus; note: nearly all actives have a fitted effect of over 50% in size
# Conditions: Lassa virus pseudotype entry inhibition, cell reporter; series mostly up to 37.9 µM
# Potency is the fitted concentration of half-maximal effect.
row,Compound,Potency
1,Cc1csc(NC(=O)c2ccc(C)s2)n1,"inconclusive: 35.5 µM [inhibitor, single point]"
2,O=C(CNS(=O)(=O)c1cccs1)NCc1ccc(F)cc1,"inconclusive: 20 µM [inhibitor, partial curve, poor fit]"
3,O=Cc1cn(Cc2cccc([N+](=O)[O-])c2)c2ccccc12,active: 0.631 µM
4,CCc1cccc(C)c1Nc1c(-c2cccc(O)c2)nc2nc(C)cc(C)n12,"inconclusive: 10 µM [inhibitor, partial curve, poor fit]"
5,O=C(NC(=S)Nc1ccccn1)c1cccc([N+](=O)[O-])c1,"inconclusive: 5.62 µM [inhibitor, single point]"
6,CCCN1C(=O)/C(=C/c2nc3ccccc3c(=O)[nH]2)c2cc(C)ccc21,"inconclusive: 29.1 µM [inhibitor, single point]"
7,Cc1ccc(C(=O)Nc2cccc(NC(=O)c3ccc(C)o3)n2)o1,"inconclusive: 5.62 µM [inhibitor, partial curve]"
8,CCOc1ccc(Nc2nc3c(C)cccc3cc2C#N)cc1,"inconclusive: 1.26 µM [inhibitor, single point]"
9,NC(=O)CC1NC(=O)c2cc([N+](=O)[O-])cc(I)c2OCCC(C(N)=O)NC(=O)[C@@H]2CCCN2C1=O (stereo partly drawn),"inconclusive: 16.4 µM [inhibitor, single point]"
10,O=[N+]([O-])c1ccc(N2CCN(C(=S)NC3CCCCC3)CC2)cc1,"inconclusive: 11.2 µM [inhibitor, partial curve, poor fit]"
11,CCOC(=O)c1cc(-c2ccc(OC)cc2)n(CCC(=O)Nc2nc3ccc(OCC)cc3s2)c1C,inactive
12,COc1cc(-c2nnc(-c3ccccc3)o2)cc(OC)c1OC,"inconclusive: 12.6 µM [inhibitor, partial curve, poor fit]"
13,CC1(C)Cc2ccccc2-c2nnc(-c3ccc(O)cc3)n21,inactive
14,COc1ccc(-c2nc(SCC(=O)N3CCCCC3C)n[nH]2)cc1 (stereo not drawn),"inconclusive: 11.2 µM [inhibitor, partial curve, poor fit]"
15,CCc1cccc2c(C(=O)C(NC(C)CC)c3ccccc3)c[nH]c12 (stereo not drawn),active: 16.4 µM
16,COc1cc2c(N3CCOCC3)cc(O)c(CC(=O)Nc3ccccc3)c2cc1OC,"inconclusive: 3.16 µM [activator, partial curve, poor fit]"
17,Cc1ccc(C(=O)OCC2OC3OC(C)(C)OC3C2O)cc1 (stereo not drawn),"inconclusive: 20 µM [activator, single point]"
18,Cc1cc(Br)ccc1NC(=S)N1CCOCC1,"inconclusive: 35.5 µM [inhibitor, single point]"

# Retrieved by structure from above (2):
row,Compound,Potency
10,O=[N+]([O-])c1ccc(N2CCN(C(=S)NC3CCCCC3)CC2)cc1,"inconclusive: 11.2 µM [inhibitor, partial curve, poor fit]"
9,NC(=O)CC1NC(=O)c2cc([N+](=O)[O-])cc(I)c2OCCC(C(N)=O)NC(=O)[C@@H]2CCCN2C1=O (stereo partly drawn),"inconclusive: 16.4 µM [inhibitor, single point]"
